Experimental data as given in patent US20090054321A1.
These are yes or no findings as the source states them, for the method shown. For some assays here: In cells and extracts the contact can be indirect. Some binding calls cover weakened binding; strength is not graded here. For some assays here: Sequences can lack the tags named with a protein.

Chains of the proteins cited; added tags and fusions are not shown. Residues count along the entry.
UniProt Q99836: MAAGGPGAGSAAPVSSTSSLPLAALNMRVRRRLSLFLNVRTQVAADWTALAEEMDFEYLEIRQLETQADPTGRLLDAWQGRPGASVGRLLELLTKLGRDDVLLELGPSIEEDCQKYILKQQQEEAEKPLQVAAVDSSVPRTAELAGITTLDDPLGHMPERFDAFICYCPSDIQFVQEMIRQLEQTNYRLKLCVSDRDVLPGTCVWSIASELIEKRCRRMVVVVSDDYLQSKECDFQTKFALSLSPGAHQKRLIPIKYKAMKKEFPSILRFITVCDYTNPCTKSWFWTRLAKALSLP
UniProt O00206, residues 24-839: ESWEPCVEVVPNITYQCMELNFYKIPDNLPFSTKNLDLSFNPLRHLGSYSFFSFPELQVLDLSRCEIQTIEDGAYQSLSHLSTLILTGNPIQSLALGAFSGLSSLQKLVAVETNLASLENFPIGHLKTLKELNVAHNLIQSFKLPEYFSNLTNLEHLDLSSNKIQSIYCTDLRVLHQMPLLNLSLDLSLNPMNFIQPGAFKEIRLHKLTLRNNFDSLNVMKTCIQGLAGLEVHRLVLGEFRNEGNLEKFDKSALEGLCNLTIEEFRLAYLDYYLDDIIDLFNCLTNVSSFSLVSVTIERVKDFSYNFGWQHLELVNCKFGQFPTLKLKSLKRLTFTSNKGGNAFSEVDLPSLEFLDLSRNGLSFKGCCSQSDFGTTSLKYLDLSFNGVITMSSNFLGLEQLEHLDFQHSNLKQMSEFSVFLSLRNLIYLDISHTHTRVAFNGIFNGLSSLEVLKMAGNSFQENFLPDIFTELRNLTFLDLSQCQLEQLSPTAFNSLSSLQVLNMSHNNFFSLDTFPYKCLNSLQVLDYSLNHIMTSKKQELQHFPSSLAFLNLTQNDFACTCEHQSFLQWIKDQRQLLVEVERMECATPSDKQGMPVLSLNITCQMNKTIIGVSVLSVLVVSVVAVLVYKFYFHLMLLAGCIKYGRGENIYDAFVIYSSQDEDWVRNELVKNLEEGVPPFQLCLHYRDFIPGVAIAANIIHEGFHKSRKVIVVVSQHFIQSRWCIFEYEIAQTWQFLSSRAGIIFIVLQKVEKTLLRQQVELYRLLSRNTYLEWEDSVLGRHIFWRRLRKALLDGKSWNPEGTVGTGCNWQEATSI
UniProt O60603: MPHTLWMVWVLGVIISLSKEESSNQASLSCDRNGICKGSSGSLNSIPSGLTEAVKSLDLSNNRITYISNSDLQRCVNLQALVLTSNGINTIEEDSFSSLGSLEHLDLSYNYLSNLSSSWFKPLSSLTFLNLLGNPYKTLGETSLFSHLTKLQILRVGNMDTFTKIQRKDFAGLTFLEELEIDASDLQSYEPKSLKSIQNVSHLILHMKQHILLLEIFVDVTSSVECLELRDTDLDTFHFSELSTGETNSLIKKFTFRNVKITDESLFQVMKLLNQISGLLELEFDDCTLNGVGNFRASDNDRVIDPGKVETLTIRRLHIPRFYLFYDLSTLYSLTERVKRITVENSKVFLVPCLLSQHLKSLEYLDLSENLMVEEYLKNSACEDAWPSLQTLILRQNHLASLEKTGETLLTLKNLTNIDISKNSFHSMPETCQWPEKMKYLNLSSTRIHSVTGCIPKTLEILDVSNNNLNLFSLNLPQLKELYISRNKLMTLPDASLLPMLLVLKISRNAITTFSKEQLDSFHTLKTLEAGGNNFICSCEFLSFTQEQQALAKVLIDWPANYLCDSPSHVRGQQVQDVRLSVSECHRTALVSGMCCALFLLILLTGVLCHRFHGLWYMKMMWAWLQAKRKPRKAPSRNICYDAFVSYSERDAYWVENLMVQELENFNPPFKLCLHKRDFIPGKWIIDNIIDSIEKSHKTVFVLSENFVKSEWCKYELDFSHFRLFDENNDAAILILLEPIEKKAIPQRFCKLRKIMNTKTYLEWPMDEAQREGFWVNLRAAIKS

Assays:
[1] = molecular target: Myc-tagged MyD88 (UniProt Q99836); assay: co-immunoprecipitation, HEK-293 cells (FIG. 9B)
[2] = molecular target: Flag-tagged TLR4 (UniProt O00206); assay: co-immunoprecipitation, HEK-293 cells (FIG. 9A)
[3] = molecular target: Flag-tagged TLR2 (UniProt O60603); assay: co-immunoprecipitation, HEK-293 cells (FIG. 9A)
[4] = molecular target: Myc-tagged MyD88 (UniProt Q99836); assay: co-immunoprecipitation, HEK-293 cells, anti-myc antibody on protein-A sepharose, blot with anti-TLR14
[5] = molecular target: Flag-tagged TLR4 (UniProt O00206); assay: co-immunoprecipitation, HEK-293 cells, anti-flag beads, blot with anti-TLR14
[6] = molecular target: Flag-tagged TLR2 (UniProt O60603); assay: as above
[7] = molecular target: Myc-tagged MyD88 (UniProt Q99836); assay: summary of the co-immunoprecipitation experiments
[8] = molecular target: Flag-tagged TLR4 (UniProt O00206); assay: summary of the co-immunoprecipitation experiments
[9] = molecular target: Flag-tagged TLR2 (UniProt O60603); assay: summary of the co-immunoprecipitation experiments
[10] = molecular target: Flag-tagged TLR2 (UniProt O60603); assay: immunoprecipitation of flag-tagged TLR2 from HEK-293 cells, blot with anti-TLR14
[11] = molecular target: Flag-tagged TLR2 (UniProt O60603); assay: immunoprecipitation of flag-tagged TLR2 from HEK-293 cells, blot with anti-TLR14 (FIG. 10)

binding [1] | binding [2] | binding [3] | binding [4] | binding [5] | binding [6] | binding [7] | binding [8] | binding [9] | binding [10] | binding [11] | Binder
binds | binds | binds | binds | binds | binds | binds | binds | binds |  |  | TLR14 (human, KIAA0644 cDNA cloned into pcDNA 3.1 with a C-terminal hemagglutinin tag, overexpressed in HEK-293 cells) (receptor, not shown: small tags and cut ends) VCPERCDCQHPQHLLCTNRGLRVVPKTSSLPSPHDVLTYSLGGNFITNITAFDFHRLGQLRRLDLQYNQIRSLHPKTFEKLSRLEELYLGNNLLQALAPGTLAPLRKLRILYANGNEISRLSRGSFEGLESLVKLRLDGNALGALPDAVFAPLGNLLYLHLESNRIRFLGKNAFAQLGKLRFLNLSANELQPSLRHAATFAPLRSLSSLILSANSLQHLGPRIFQHLPRLGLLSLRGNQLTHLAPEAFWGLEALRELRLEGNRLSQLPTALLEPLHSLEALDLSGNELSALHPATFGHLGRLRELSLRNNALSALSGDIFAASPALYRLDLDGNGWTCDCRLRGLKRWMGDWHSQGRLLTVFVQCRHPPALRGKYLDYLDDQQLQNGSCADPSPSASLTADRRRQPLPTAAGEEMTPPAGLAEELPPQPQLQQQGRFLAGVAWDGAARELVGNRSALRLSRRGPGLQQPSPSVAAAAGPAPQSLDLHKKPQRGRPTRADPALAEPTPTASPGSAPSPAGDPWQRATKHRLGTEHQERAAQSDGGAGLPPLVSDPCDFNKFILCNLTVEAVGADSASVRWAVREHRSPRPLGGARFRLLFDRFGQQPKFHRFVYLPESSDSATLRELRGDTPYLVCVEGVLGGRVCPVAPRDHCAGLVTLPEAGSRGGVDYQLLTLALLTVNALLVLLALAAWASRWLRRKLRARRKGGAPVHVRHMYSTRRPLRSMGTGVSADFSGFQSHRPRTTVCALSEADLIEFPCDRFMDSAGGGAGGSLRREDRLLQRFAD
 |  |  |  |  |  |  |  |  | binds | binds | endogenous TLR14 (human; HEK-293 cells, human brain and lung tissue) (receptor) VCPERCDCQHPQHLLCTNRGLRVVPKTSSLPSPHDVLTYSLGGNFITNITAFDFHRLGQLRRLDLQYNQIRSLHPKTFEKLSRLEELYLGNNLLQALAPGTLAPLRKLRILYANGNEISRLSRGSFEGLESLVKLRLDGNALGALPDAVFAPLGNLLYLHLESNRIRFLGKNAFAQLGKLRFLNLSANELQPSLRHAATFAPLRSLSSLILSANSLQHLGPRIFQHLPRLGLLSLRGNQLTHLAPEAFWGLEALRELRLEGNRLSQLPTALLEPLHSLEALDLSGNELSALHPATFGHLGRLRELSLRNNALSALSGDIFAASPALYRLDLDGNGWTCDCRLRGLKRWMGDWHSQGRLLTVFVQCRHPPALRGKYLDYLDDQQLQNGSCADPSPSASLTADRRRQPLPTAAGEEMTPPAGLAEELPPQPQLQQQGRFLAGVAWDGAARELVGNRSALRLSRRGPGLQQPSPSVAAAAGPAPQSLDLHKKPQRGRPTRADPALAEPTPTASPGSAPSPAGDPWQRATKHRLGTEHQERAAQSDGGAGLPPLVSDPCDFNKFILCNLTVEAVGADSASVRWAVREHRSPRPLGGARFRLLFDRFGQQPKFHRFVYLPESSDSATLRELRGDTPYLVCVEGVLGGRVCPVAPRDHCAGLVTLPEAGSRGGVDYQLLTLALLTVNALLVLLALAAWASRWLRRKLRARRKGGAPVHVRHMYSTRRPLRSMGTGVSADFSGFQSHRPRTTVCALSEADLIEFPCDRFMDSAGGGAGGSLRREDRLLQRFAD
